Measured values reported in article PMC7862700.
The list shows a part of the results, in another mix than the full data. At the low end of the ranking, values are background and their order means little.

Experiments:
Experiment in all cases: DAPPL (digital affinity profiling via proximity ligation, sequencing)
Conditions in all cases: 10 mM Tris-HCl pH 7.5, 50 mM NaCl, 1 mM DTT, 4% glycerol, room temperature, 30 min; GST-TFs on glutathione beads, 16-mer random dsDNA library, 0.1% …; high values mean tight binding; double strand, one strand shown; scale: fold enrichment (6-mer frequency, TF over GST control)
ETV3 = target: T1, ETV3 (UniProt P41162-2)
T1 sequence: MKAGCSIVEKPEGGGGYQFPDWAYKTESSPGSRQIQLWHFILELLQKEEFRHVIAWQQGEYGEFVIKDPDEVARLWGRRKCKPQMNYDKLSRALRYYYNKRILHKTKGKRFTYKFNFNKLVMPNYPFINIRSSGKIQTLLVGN

ELK3 = target: T2, ELK3 (UniProt P41970)
T2 sequence: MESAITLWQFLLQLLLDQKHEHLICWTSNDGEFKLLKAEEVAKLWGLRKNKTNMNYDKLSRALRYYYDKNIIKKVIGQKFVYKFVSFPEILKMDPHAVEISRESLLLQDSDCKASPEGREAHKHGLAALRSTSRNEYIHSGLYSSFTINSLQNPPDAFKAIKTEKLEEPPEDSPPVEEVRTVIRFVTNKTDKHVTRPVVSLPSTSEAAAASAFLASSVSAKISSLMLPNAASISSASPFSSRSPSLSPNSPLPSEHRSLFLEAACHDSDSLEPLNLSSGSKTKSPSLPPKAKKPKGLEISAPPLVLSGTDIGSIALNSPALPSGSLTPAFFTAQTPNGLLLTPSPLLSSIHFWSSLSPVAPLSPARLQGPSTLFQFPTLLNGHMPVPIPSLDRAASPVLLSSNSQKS

ETS2 = target: T3, ETS2 (UniProt P15036)
T3 sequence: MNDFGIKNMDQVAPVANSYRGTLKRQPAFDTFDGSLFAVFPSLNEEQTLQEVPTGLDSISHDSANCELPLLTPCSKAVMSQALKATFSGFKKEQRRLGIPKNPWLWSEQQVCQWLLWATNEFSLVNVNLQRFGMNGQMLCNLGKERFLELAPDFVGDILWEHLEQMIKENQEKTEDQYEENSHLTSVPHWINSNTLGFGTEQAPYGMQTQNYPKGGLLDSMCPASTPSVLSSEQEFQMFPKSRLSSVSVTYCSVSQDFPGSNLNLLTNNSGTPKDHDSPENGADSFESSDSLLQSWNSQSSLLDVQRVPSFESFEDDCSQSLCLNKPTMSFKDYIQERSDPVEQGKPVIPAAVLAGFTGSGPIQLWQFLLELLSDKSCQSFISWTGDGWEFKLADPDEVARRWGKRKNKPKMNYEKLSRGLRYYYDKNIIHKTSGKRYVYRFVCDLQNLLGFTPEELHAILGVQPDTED

Sequence: TTGGGT
- binding signal (ETV3): 0.975

Sequence: TACCAA
- binding signal (ELK3): 1.05
- binding signal (ETS2): 1.18

Sequence: AACTCG
- binding signal (ELK3): 1.24
- binding signal (ETS2): 1.31

Sequence: ACGGCC
- binding signal (ELK3): 0.973
- binding signal (ETS2): 1.1

Sequence: ACTTTT
- binding signal (ETV3): 1.31

Sequence: CTCCTA
- binding signal (ELK3): 1.24
- binding signal (ETS2): 1.32

Sequence: TGTGTT
- binding signal (ETV3): 0.969

Sequence: CTAATA
- binding signal (ELK3): 1.06
- binding signal (ETS2): 1.18

Sequence: CTGCAC
- binding signal (ETV3): 1.23

Sequence: GATGCT
- binding signal (ELK3): 1.2
- binding signal (ETS2): 1.25
- binding signal (ETV3): 1.29

Sequence: GCACTT
- binding signal (ELK3): 1.99
- binding signal (ETS2): 1.76
- binding signal (ETV3): 1.94

Sequence: TAACCT
- binding signal (ELK3): 1.43
- binding signal (ETS2): 1.31
- binding signal (ETV3): 1.31

Sequence: GGAAGC
- binding signal (ELK3): 1.77
- binding signal (ETS2): 1.6

Sequence: ATGTTC
- binding signal (ELK3): 1.14
- binding signal (ETS2): 1.25

Sequence: AACACA
- binding signal (ELK3): 1.26
- binding signal (ETS2): 1.38

Sequence: GGCTCC
- binding signal (ELK3): 1.27
- binding signal (ETS2): 1.21

Sequence: TGAAAC
- binding signal (ELK3): 1.33
- binding signal (ETS2): 1.3

Sequence: GGTATT
- binding signal (ELK3): 1.15
- binding signal (ETS2): 1.2

Sequence: CTAGGT
- binding signal (ETV3): 1.14

Sequence: ACTGCG
- binding signal (ELK3): 1.25
- binding signal (ETS2): 1.35

Sequence: CAATTG
- binding signal (ELK3): 1.23
- binding signal (ETS2): 1.26

Sequence: ATACAA
- binding signal (ELK3): 1.31
- binding signal (ETS2): 1.19

Sequence: GATGGT
- binding signal (ETV3): 1.12

Sequence: CGCCCG
- binding signal (ELK3): 1.15
- binding signal (ETS2): 1.09
- binding signal (ETV3): 1.3

Sequence: CTTTCC
- binding signal (ELK3): 2.1
- binding signal (ETS2): 2.1

Sequence: TCTAGC
- binding signal (ELK3): 1.44
- binding signal (ETS2): 1.3

Sequence: TTACGA
- binding signal (ELK3): 1.09
- binding signal (ETS2): 1.14

Sequence: CACTCG
- binding signal (ETV3): 1.09

Sequence: TGTATC
- binding signal (ELK3): 1.44
- binding signal (ETS2): 1.42

Sequence: GAAATC
- binding signal (ETV3): 1.42

Sequence: CCGATG
- binding signal (ELK3): 0.959
- binding signal (ETS2): 0.963

Sequence: ACTTAA
- binding signal (ELK3): 1.24
- binding signal (ETS2): 1.19

Sequence: GCTGTA
- binding signal (ETV3): 1.08

Sequence: TCCGAC
- binding signal (ELK3): 1.56
- binding signal (ETS2): 1.48

Sequence: GCTTTA
- binding signal (ELK3): 1.24
- binding signal (ETS2): 1.2

Sequence: CTTCGG
- binding signal (ELK3): 1.38
- binding signal (ETS2): 1.48

Sequence: CTCAAT
- binding signal (ELK3): 1.34
- binding signal (ETS2): 1.21

Sequence: AACCAA
- binding signal (ELK3): 1.19

Sequence: CGAAAA
- binding signal (ELK3): 1.01

Sequence: ATCTCG
- binding signal (ELK3): 1.26
- binding signal (ETV3): 1.29

Sequence: ATAGCT
- binding signal (ELK3): 0.998
- binding signal (ETV3): 1.12

Sequence: GGCTCT
- binding signal (ELK3): 1.42

Sequence: GACCTG
- binding signal (ELK3): 1.35
- binding signal (ETV3): 1.17

Sequence: TAAAAC
- binding signal (ELK3): 1.19

Sequence: TCCTTT
- binding signal (ELK3): 1.81
- binding signal (ETV3): 1.78

Sequence: CCGCAC
- binding signal (ELK3): 1.52

Sequence: TCCCCA
- binding signal (ELK3): 1.34
- binding signal (ETV3): 1.36

Sequence: AAATTG
- binding signal (ELK3): 1.22
- binding signal (ETV3): 1.28

Sequence: TCTCTA
- binding signal (ELK3): 1.22
- binding signal (ETV3): 1.3

Sequence: GTTCCG
- binding signal (ELK3): 1.71
- binding signal (ETV3): 2.17

Sequence: TGCTGT
- binding signal (ELK3): 0.962
- binding signal (ETV3): 0.993

Sequence: TGGACC
- binding signal (ELK3): 0.919

Sequence: AATTAG
- binding signal (ELK3): 1.09
- binding signal (ETV3): 1.19

Sequence: AGGCTC
- binding signal (ELK3): 0.952
- binding signal (ETV3): 1.01

Sequence: TGTTCT
- binding signal (ELK3): 1.21
- binding signal (ETV3): 1.27

Sequence: TGAAAA
- binding signal (ELK3): 0.941
- binding signal (ETV3): 0.975

Sequence: TGACTT
- binding signal (ELK3): 1.27
- binding signal (ETV3): 1.46

Sequence: ATTCCG
- binding signal (ELK3): 1.78

Sequence: TAGTCC
- binding signal (ELK3): 1.07
- binding signal (ETV3): 0.959

Sequence: ATTGCT
- binding signal (ELK3): 1.22
- binding signal (ETV3): 1.11

Sequence: TCTCAC
- binding signal (ELK3): 1.58
- binding signal (ETV3): 1.34

Sequence: TAGGTT
- binding signal (ELK3): 1.16
- binding signal (ETV3): 1.14

Sequence: GTCTAC
- binding signal (ELK3): 1.06
- binding signal (ETV3): 1.06

Sequence: CGATAC
- binding signal (ELK3): 1.14
- binding signal (ETV3): 1.15

Sequence: AATGCA
- binding signal (ELK3): 1.3
- binding signal (ETV3): 1.25

Sequence: ATCAGC
- binding signal (ELK3): 1.03
- binding signal (ETV3): 0.962

Sequence: ATGACG
- binding signal (ELK3): 1.39
- binding signal (ETV3): 1.2

Sequence: ATTAGC
- binding signal (ELK3): 1.09

Sequence: TGCTAC
- binding signal (ELK3): 1.26
- binding signal (ETV3): 1.23

Sequence: GATGCC
- binding signal (ELK3): 1.38
- binding signal (ETV3): 1.39

Sequence: TCCATC
- binding signal (ELK3): 1.28
- binding signal (ETV3): 1.22

Sequence: TGTACT
- binding signal (ELK3): 1.35

Sequence: CAATAA
- binding signal (ELK3): 1.2

Sequence: CCGATC
- binding signal (ELK3): 1.17
- binding signal (ETV3): 1.25

Sequence: GAATTC
- binding signal (ELK3): 1.38

Sequence: TCTTCA
- binding signal (ELK3): 1.27
- binding signal (ETV3): 1.16

Sequence: CTATGA
- binding signal (ELK3): 1.01
- binding signal (ETV3): 0.965

Sequence: AATTGT
- binding signal (ELK3): 1.29
- binding signal (ETV3): 1.31

Sequence: AATCCC
- binding signal (ELK3): 1.13
